Experimental data taken from PubChem BioAssay AID504444 (National Center for Advancing Translational Sciences (NCATS), 2011).
The whole screen tested about 360,000 compounds, of which about 7,500 (2.1%) were called active. The shares of active, inactive and inconclusive entries below differ from those in the screen. Calls come from the whole dose curve; as a rule, active = well fitted inhibition curve with a large enough effect; inconclusive = small, poorly fitted or top-dose-only effect, or effect the other way; inactive = flat fitted curve, though single readings scatter. Where the call is inconclusive, the potency comes from a doubtful curve fit.

Assay: Nrf2 qHTS screen for inhibitors; note: nearly all actives have a fitted effect of over 60% in size
Details: A549 ARE-Fluc reporter, luciferase luminescence, 18-24 h; series mostly up to 46 µM
Outline: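 In this cell-based qHTS, ARE-driven firefly luciferase in A549 cells reports Nrf2 activity; the luminescent signal after BugLite lysis is the measured value, with a prior CellTiter-Fluor read for cell health.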
Potency is the fitted concentration of half-maximal effect.

| SMILES | Potency |
| --- | --- |
| COc1ccc(C(=O)Nc2cc(S(=O)(=O)N3CCCC3)ccc2Cl)cc1 | inconclusive: 29.1 µM [falling, single point] |
| N=c1c2c(-c3ccccc3)c(-c3ccccc3)n(Cc3ccco3)c2ncn1Cc1ccco1 | inconclusive: 6.51 µM [falling, single point] |
| CCn1cc(C(=O)O)c(=O)c2cc(F)c(N3CCN(C(=S)NC(=O)c4c(OC)cccc4OC)CC3)cc21 | inconclusive: 9.2 µM [falling, partial curve] |
| COc1ccc(C(=O)NCC(c2cccnc2)N2CCN(c3ccccc3OC)CC2)cc1OC (configuration not stated) | inconclusive: 16.4 µM [falling, single point] |
| C/C(CC(=O)Nc1ccc(Cl)c(C(F)(F)F)c1)=N\NC(=O)c1ccccc1O | active: 23.1 µM |
| O=C(c1ccco1)N1CCN(CCCCOc2cccc3ccccc23)CC1 | inconclusive: 4.11 µM [falling, partial curve, poor fit] |
| COC(=O)C1N2C(=O)[C@@H](NC(=O)COc3ccccc3)[C@H]2SC1(C)C (some centres not stated) | inconclusive: 16.4 µM [activator, partial curve, poor fit] |
| O=C(/C=C/c1ccc(N2CCOCC2)cc1)c1ccccc1 | inconclusive: 18.4 µM [activator, single point] |
| CC(=O)Nc1ccc(N2Cc3ccccc3C2)cc1 | inconclusive: 3.26 µM [falling, full curve] |
| CCCC(=O)Nc1ccc(Cl)c(NC(=S)NC(=O)c2cc3ccccc3o2)c1 | inconclusive: 6.51 µM [activator, single point] |
| Cc1ccccc1CN1c2ccccc2-c2nc(SCC(=O)NCCc3ccccc3)ncc2S1(=O)=O | inactive |
| Cc1cc(/C=C\c2ccc3cc(N(C)C)ccc3[n+]2C)c(C)n1-c1ccccc1 | active: 1.16 µM |
| CCOC(=O)c1c(C)c(-c2ccccc2)n(CC(=O)NCCc2ccc(C)cc2)c1C | inactive |
| CCC(C)(C(=O)NC1CCCCC1)N(CC1CCCO1)C(=O)c1ccccn1 (configuration not stated) | inconclusive: 16.4 µM [activator, partial curve] |
| NC(=O)c1c(NC(=O)CSc2nnc(Cc3ccccc3)n2Cc2ccco2)sc2c1CCC2 | inconclusive: 29.1 µM [falling, single point] |
| Cc1cnc(NCCc2ccccc2)s1 | inconclusive: 20.6 µM [activator, partial curve, poor fit] |
| COc1ccc(CNC(=O)C[C@H]2C[C@H](C(=O)N3CCOCC3)[C@@]3(CCC4CCCC4)c4[nH]c5cc(-c6ccco6)ccc5c4CCN3C2=O)cc1OC | active: 23.1 µM |
| COc1ccc(S(=O)(=O)N2CCN(C(=O)c3cc4c(s3)CCCC4)CC2)cc1 | inconclusive: 20.6 µM [falling, single point] |
| O=C(COc1ccccc1F)N/N=C1\CCCc2ccccc21 | inconclusive: 5.17 µM [activator, full curve] |
| Cc1nn(C)cc1C(=O)NNC(=S)Nc1ccccc1 | inconclusive: 5.8 µM [activator, partial curve] |
| CC(O/N=C/c1ccccc1OC(F)F)C(=O)Nc1cccc(S(=O)(=O)N2CCOCC2)c1 (configuration not stated) | inactive |

Single values from the entries so far:
CCOC(=O)c1c(C)c(-c2ccccc2)n(CC(=O)NCCc2ccc(C)cc2)c1C – Potency: inactive
N=c1c2c(-c3ccccc3)c(-c3ccccc3)n(Cc3ccco3)c2ncn1Cc1ccco1 – Potency: inconclusive: 6.51 µM [falling, single point]
O=C(c1ccco1)N1CCN(CCCCOc2cccc3ccccc23)CC1 – Potency: inconclusive: 4.11 µM [falling, partial curve, poor fit]

(listing goes on)

| SMILES | Potency |
| --- | --- |
| Clc1ccc(Oc2ncnc3oc(-c4ccccc4)cc23)cc1 | inactive |
| Clc1ccc(/C=N/Nc2ncnc3nc[nH]c23)cc1 | inactive |
| Cc1cccc(NC(=O)COC(=O)Cc2cccs2)c1C | inactive |
| O=C(Nc1ccc(CN2CCOCC2)cc1)c1ccc(-c2ccc(Cl)cc2Cl)o1 | inconclusive: 23.1 µM [falling, single point] |
| O=C(CN1CCc2cc3c(cc2C1)OCCCO3)Nc1ccc(F)cc1 | inconclusive: 20.6 µM [falling, single point] |
| COc1ccc2c(C)cc(SCC(=O)N(C)C3CCS(=O)(=O)C3)nc2c1 (configuration not stated) | inactive |
| Cc1ccccc1C(=O)Nc1nnc(S(=O)(=O)N2CCCCCC2)s1 | inconclusive: 4.61 µM [activator, partial curve] |
| CCn1c(C(=O)NC2CCC(C)CC2)cc2sccc21 (configuration not stated) | inconclusive: 29.1 µM [falling, single point] |
| COc1ccc(OCCn2c(CCNC(=O)C3CCCCC3)nc3ccccc32)cc1 | inconclusive: 25.9 µM [falling, partial curve, poor fit] |
| COc1ccccc1C(=O)NCCC(=O)Nc1cccc(S(=O)(=O)N2CCCC2)c1 | inconclusive: 7.31 µM [falling, partial curve, poor fit] |
| CCc1nn2c(=O)cc(COC(=O)C(c3ccccc3)c3ccccc3)nc2s1 | inconclusive: 23.1 µM [falling, single point] |
| Cc1cccc(-c2nc(SCC(=O)Nc3ccc4c(c3)OCCO4)c(-c3ccccc3)[nH]2)c1 | inconclusive: 23.1 µM [falling, single point] |
| COc1ccc(-n2nc(C(=O)NCCc3cccc(C)c3)c3c4ccccc4n(C)c3c2=O)cc1Cl | inactive |
| C=CCn1c(CSCc2ccccc2)nnc1SCC(=O)N1CCN(c2ccccc2)CC1 | inconclusive: 16.4 µM [falling, partial curve, poor fit] |
| Clc1ccc(-n2cc(-c3ccc(Br)cc3)[n+]3c2CCCCC3)cc1 | inactive |
| O=C(Nc1ccncc1)c1cccc(S(=O)(=O)N2CCc3ccccc32)c1 | active: 8.2 µM |
| O=C1CC(c2ccco2)CC(O)=C1C=Nc1cc(Cl)cc(Cl)c1 (configuration not stated) | inconclusive: 20.6 µM [falling, partial curve] |
| CCOc1ccc(NC(=O)CC2C(=O)N(c3cccc(C)c3)C(=O)N2Cc2cccnc2)cc1 (configuration not stated) | inconclusive: 13 µM [activator, partial curve, poor fit] |
| CCOc1ccc(NC(=O)Cn2c(=O)n(CCC(=O)NCCc3ccccc3)c(=O)c3ccccc32)cc1 | inactive |
| S=c1nccc(-c2ccc3c(c2)CCO3)[nH]1 | inconclusive: 32.6 µM [falling, single point] |
| Cc1ccnc(SCC(=O)N2CCc3ccccc32)n1 | inconclusive: 11.6 µM [activator, partial curve] |
